No constants are given. Whether binding was seen depends on the method and setting. Some entries that bind do so weakly or less than the wild type. Sequences can lack the tags named with a protein.
T1: His-tagged recombinant human LRP10 protein, LRP10-516H (human) (UniProt Q7Z4F1)
T1 sequence (looked up): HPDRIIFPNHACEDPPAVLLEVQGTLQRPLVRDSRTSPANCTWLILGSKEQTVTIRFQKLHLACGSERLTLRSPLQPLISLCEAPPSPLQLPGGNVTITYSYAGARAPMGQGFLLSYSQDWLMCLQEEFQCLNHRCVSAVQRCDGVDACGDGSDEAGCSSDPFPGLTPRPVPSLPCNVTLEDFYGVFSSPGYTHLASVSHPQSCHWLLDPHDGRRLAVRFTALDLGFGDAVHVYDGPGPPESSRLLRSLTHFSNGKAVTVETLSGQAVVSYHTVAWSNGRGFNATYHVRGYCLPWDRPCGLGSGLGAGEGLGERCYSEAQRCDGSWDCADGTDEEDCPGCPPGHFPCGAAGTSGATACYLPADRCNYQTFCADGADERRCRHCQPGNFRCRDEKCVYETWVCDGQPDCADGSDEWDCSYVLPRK

B1: Clone 1 (AB1) (antibody, V domains shown)
VH: EVQLLESGGGLVQPGGSLRLSCAASGFTFSSQAMSWVRQAPGKGLEWVSSIPPGGPNTKYADSVKGRFTISRDNSKNTLYLQMNSLRAEDTAVYYCAKSYPSFDYWGQGTLVTVSS
VL: DIQMTQSPSSLSASVGDRVTITCRASQSISSYLNWYQQKPGKAPKLLIYNASDLQSGVPSRFSGSGSGTDFTLTISSLQPEDFATYYCQQSSRTPTTFGQGTKVEIK
notes: also called AB1 (L1 + H1); AB1: L1 + H1
B2: Clone 3 (AB3) (antibody, human IgG1, V domains shown)
VH: EVQLLESGGGLVQPGGSLRLSCAASGFTFSSYAMSWVRQAPGKGLEWVSQIGTMGRPTTYADSVKGRFTISRDNSKNTLYLQMNSLRAEDTAVYYCAKSGKKFDYWGQGTLVTVSS
VL: DIQMTQSPSSLSASVGDRVTITCRASQSISSYLNWYQQKPGKAPKLLIYRASRLQSGVPSRFSGSGSGTDFTLTISSLQPEDFATYYCQQPTSLPLTFGQGTKVEIK
notes: Expressed as a full antibody in 293F cells, protein A purified; also called AB3 (L3 + H2); AB3: L3 + H2
B3: Clone 7 (AB7) (antibody, human IgG1, V domains shown)
VH: EVQLLESGGGLVQPGGSLRLSCAASGFTFSSYAMSWVRQAPGKGLEWVSSIATTGNTTYYADSVKGRFTISRDNSKNTLYLQMNSLRAEDTAVYYCAKNTATFDYWGQGTLVTVSS
VL: DIQMTQSPSSLSASVGDRVTITCRASQSISSYLNWYQQKPGKAPKLLIYAASTLQSGVPSRFSGSGSGTDFTLTISSLQPEDFATYYCQQNDYYPTTFGQGTKVEIK
notes: Expressed as a full antibody in 293F cells, protein A purified; also called AB7 (L7 + H6); AB7: L7 + H6
B4: Clone 8 (AB8) (antibody, human IgG1, V domains shown)
VH: EVQLLESGGGLVQLGGSLRLSCAASGFTFSSQAMSWVRQAPGKGLEWVSSIPPGGPNTKYADSVKGRFTISRDNSKNTLYLQMNSLRAEDTAVYYCAKSYPSFDYWGQGTLVTVSS
VL: DIQMTQSPSSLSASVGDRVTITCRASQSISSYLNWYQQKPGKAPKLLIYNASDLQSGVPSRFSGSGSGTDFTLTISSLQPEDFATYYCQQSSRTPTTFGQGTKVEIK
notes: Expressed as a full antibody in 293F cells, protein A purified; also called AB8 (L1 + H7); AB (L1 + H7)
B5: Clone 2 (AB2) (antibody, human IgG1, V domains shown)
VH: EVQLLESGGGLVQPGGSLRLSCAASGFTFSSQAMSWVRQAPGKGLEWVSSIPPGGPNTKYADSVKGRFTISRDNSKNTLYLQMNSLRAEDTAVYYCAKSYPSFDYWGQGTLVTVSS
VL: DIQMTQSPSSLSASVGDRVTITCRASQSISSYLNWYQQKPGKAPKLLIYAASPLQSGVPSRFSGSGSGTDFTLTISSLQPEDFATYYCQQVARTPNTFGQGTKVEIK
notes: Expressed as a full antibody in 293F cells, protein A purified; also called AB2 (L2 + H1); AB2: L2 + H1

What follows are binders tested against T1, His-tagged recombinant human LRP10 protein, LRP10-516H (human) (assay: ELISA on coated LRP10).

binding, binds:
B1
B2
B3
B4
B5

Source: patent US20200385459A1 (University of Texas, published 2020)
